Where a name gives a salt, the structure may show the parent alone. For some assays here: Part of at least one peptide drawing is inferred or uncertain, most often the ends. Some entries share one result that the patent states for a list of compounds.
Assays:
[1] = Bone marrow toxicity and differential white cell count; type: in vivo, mice; conditions: 40 mg/kg IV x3, 2 days apart, sternum day 7
Method: Bone marrow toxicity was studied in a separate experiment, in which animals received three injections of a 40 mg/kg irinotecan dose equivalent, as described above. After sacrifice, sternal bone marrow was collected to evaluate myelotoxicity by H&E staining (FIG. 4D) (Iusuf et al. (2014) Mol. Cancer Ther. 13: 492-503).

[2] = system: KPC-derived orthotopic tumor; assay: TEM analysis of transcytosis vesicles in tumor endothelial cells; type: in vivo, mice; conditions: 24 h
[3] = system: KPC-derived orthotopic tumor; assay: Ir-silicasome efficacy with iRGD co-administration

Compound | marrow space filled by hematopoietic cells [1] | increase in endothelial vesicle density vs no peptide ([2]; 8 μmol/kg with 50 mg/kg Au-silicasomes) | diameter of induced vesicles [2] | survival (Kaplan-Meier) ([3]; 8 μmol/kg iRGD co-administered with Ir-silicasome) | tumor burden and metastases (autopsy, bioluminescence) ([3]; every 3 days x4)
CCc1c2c(nc3ccc(OC(=O)N4CCC(N5CCCCC5)CC4)cc13)-c1cc3c(c(=O)n1C2)COC(=O)[C@]3(O)CC [free irinotecan, Irinotecan hydrochloride trihydrate] | < 30% |  |  |  | 
N=C(N)NCCC[C@@H]1NC(=O)[C@@H](N)CSSC[C@@H](C(=O)O)NC(=O)[C@H](CC(=O)O)NC(=O)[C@@H]2CCCN2C(=O)CNC(=O)[C@H](CCCCN)NC(=O)[C@H](CC(=O)O)NC(=O)CNC1=O [iRGD] |  | ~3 fold | 110˜370 nm | improved the survival impact of the Ir-silicasome | Numerous metastatic foci

Reference: US12171884B2, “Mesoporous silica nanoparticles with lipid bilayer coating for cargo delivery” (priority 2016, dated 2024)
